No constants are given. Whether binding was seen depends on the method and setting. Some entries that bind do so weakly or less than the wild type.
Assays:
[1] = biological target: surface HSP90 on MDAMB453 breast cancer cells (human) (UniProt P07900); test: immunofluorescence on MDAMB453 cells (FIG. 5A, 5C)
[2] = biological target: surface HSP90 on MDAMB453 breast cancer cells (human) (UniProt P07900); test: immunofluorescence on unfixed, living MDAMB453 cells (FIG. 5A, 5C)
[3] = biological target: surface HSP90 on MDAMB453 breast cancer cells (human) (UniProt P07900); test: summary of the immunofluorescence experiments
[4] = biological target: surface HSP90 on MDAMB453 breast cancer cells (human) (UniProt P07900); test: immunofluorescence on MDAMB453 cells (FIG. 5A)
[5] = biological target: surface HSP90 on MDAMB453 breast cancer cells (human) (UniProt P07900); test: immunofluorescence on unfixed MDAMB453 cells (FIG. 5A)

Row | Binder | binding [1] | binding [2] | binding [3] | binding [4] | binding [5]
1 | recombinant 4C5 (antibody, V domains shown) VL: ELVMTQSPSSMYASLGERVTITCKASQDINSYLSWFQQKPGKSPKTLIYRANRLVDGVPSRFSGSGSGQDYSLTINSLEYEDMGIYYCLQYDEFPRLTFGAGTRLELKR | binds | binds |  |  | 
2 | human-mouse chimeric 4C5 antibody (antibody, V domains shown) VL: ELVMTQSPSSMYASLGERVTITCKASQDINSYLSWFQQKPGKSPKTLIYRANRLVDGVPSRFSGSGSGQDYSLTINSLEYEDMGIYYCLQYDEFPRLTFGAGTRLELKR | binds | binds | binds |  | 
3 | monoclonal antibody (mAb) 4C5 (antibody, V domains shown) VL: ELVMTQSPSSMYASLGERVTITCKASQDINSYLSWFQQKPGKSPKTLIYRANRLVDGVPSRFSGSGSGQDYSLTINSLEYEDMGIYYCLQYDEFPRLTFGAGTRLELKR |  |  |  | binds | binds
